Here are results for three molecules from publication PMC5319029.

Results are given in words; binding and its absence hold for the method and conditions named. For some of these results: Binding can be weak; no strength is given. For some of these results: Sequences can lack the tags named with a protein. For some of these results: In cells and extracts the contact can be indirect.

In assay [1] the target is T1, recombinant AIM2 fused to VP16 AD (AD-AIM2) (human) (UniProt O14862).
T1 sequence: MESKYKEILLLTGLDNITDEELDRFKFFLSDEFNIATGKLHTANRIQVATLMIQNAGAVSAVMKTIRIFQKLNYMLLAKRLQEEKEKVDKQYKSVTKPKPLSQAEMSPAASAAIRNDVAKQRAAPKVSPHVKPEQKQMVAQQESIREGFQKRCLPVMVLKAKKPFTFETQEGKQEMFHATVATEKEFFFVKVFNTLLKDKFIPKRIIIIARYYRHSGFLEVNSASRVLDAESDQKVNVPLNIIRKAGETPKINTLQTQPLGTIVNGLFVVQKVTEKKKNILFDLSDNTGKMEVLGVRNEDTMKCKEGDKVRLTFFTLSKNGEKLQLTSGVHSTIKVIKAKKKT
Briefly: co-IP; HEK293T cells co-transfected with pM-UL83 and pVP-AIM2 for 72 h; lysis in 50 mM HEPES pH 7.4, 250 mM NaCl, 0.1% NP-40, 2 mM EDTA, 10% glycerol; precipitated with anti-AIM2 antibody and protein A/G beads, blotted with anti-pUL83; IgG as negative control.

Assay [2] concerns the target T2, AIM2 of THP-1-derived macrophages (human (endogenous in THP-1)) (UniProt O14862).
T2 sequence: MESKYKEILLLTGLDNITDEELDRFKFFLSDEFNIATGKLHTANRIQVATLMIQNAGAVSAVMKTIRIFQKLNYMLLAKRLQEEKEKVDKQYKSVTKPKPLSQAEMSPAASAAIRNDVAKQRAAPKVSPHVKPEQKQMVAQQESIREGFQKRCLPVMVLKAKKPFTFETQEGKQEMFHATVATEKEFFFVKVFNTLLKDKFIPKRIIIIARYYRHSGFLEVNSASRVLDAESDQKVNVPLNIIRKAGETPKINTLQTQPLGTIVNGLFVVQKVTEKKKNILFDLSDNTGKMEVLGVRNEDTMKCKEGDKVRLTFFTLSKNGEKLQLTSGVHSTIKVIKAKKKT
Put plainly: co-IP; THP-1-derived macrophages (PMA) infected with HCMV AD169 for 6 h or 12 h; lysate precipitated with anti-AIM2 antibody and protein A/G beads, blotted with anti-pUL83 and anti-AIM2.

Assay [3] addresses T2, AIM2 of THP-1-derived macrophages (human (endogenous in THP-1)). Put plainly: co-IP; THP-1-derived macrophages (PMA) infected with HCMV AD169 for 24 h; lysate precipitated with anti-AIM2 antibody and protein A/G beads, blotted with anti-pUL83 and anti-AIM2.
The target in assay [4] is recombinant pUL83 fused with Gal4 DNA BD (BD-pUL83) (HCMV AD169 strain). Briefly: two-hybrid; mammalian two-hybrid (Matchmaker Mammalian Assay Kit) in HEK293T cells co-transfected with pM-UL83 (bait), pVP-AIM2 (prey) and pG5SEAP; SEAP in the culture supernatant 72 h after transfection, chemiluminescence.

As to “recombinant pUL83 fused with Gal4 DNA BD (BD-pUL83) (HCMV AD169 strain)”, the binding entry in assay [1] is “binds”.
On to “pUL83 of HCMV AD169 in infected THP-1-derived macrophages”, for which the values for the binding result in assay [2] and in assay [3] were “binds” and “no binding (only 24 h post infection)”, respectively.

B1: recombinant AIM2 fused to VP16 AD (AD-AIM2) (protein, UniProt O14862 1-343)
chain: MESKYKEILLLTGLDNITDEELDRFKFFLSDEFNIATGKLHTANRIQVATLMIQNAGAVSAVMKTIRIFQKLNYMLLAKRLQEEKEKVDKQYKSVTKPKPLSQAEMSPAASAAIRNDVAKQRAAPKVSPHVKPEQKQMVAQQESIREGFQKRCLPVMVLKAKKPFTFETQEGKQEMFHATVATEKEFFFVKVFNTLLKDKFIPKRIIIIARYYRHSGFLEVNSASRVLDAESDQKVNVPLNIIRKAGETPKINTLQTQPLGTIVNGLFVVQKVTEKKKNILFDLSDNTGKMEVLGVRNEDTMKCKEGDKVRLTFFTLSKNGEKLQLTSGVHSTIKVIKAKKKT
As to B1, in assay [4], the binding result is listed as “binds”.
